# This is one part of the list. Most values lie at the level of the controls, where differences are scatter.
# Amino acid sequences for entries named in this document (tags omitted). A change or cut given only in a name is not applied to a line headed by its entry.
# UniProt Q7Z739: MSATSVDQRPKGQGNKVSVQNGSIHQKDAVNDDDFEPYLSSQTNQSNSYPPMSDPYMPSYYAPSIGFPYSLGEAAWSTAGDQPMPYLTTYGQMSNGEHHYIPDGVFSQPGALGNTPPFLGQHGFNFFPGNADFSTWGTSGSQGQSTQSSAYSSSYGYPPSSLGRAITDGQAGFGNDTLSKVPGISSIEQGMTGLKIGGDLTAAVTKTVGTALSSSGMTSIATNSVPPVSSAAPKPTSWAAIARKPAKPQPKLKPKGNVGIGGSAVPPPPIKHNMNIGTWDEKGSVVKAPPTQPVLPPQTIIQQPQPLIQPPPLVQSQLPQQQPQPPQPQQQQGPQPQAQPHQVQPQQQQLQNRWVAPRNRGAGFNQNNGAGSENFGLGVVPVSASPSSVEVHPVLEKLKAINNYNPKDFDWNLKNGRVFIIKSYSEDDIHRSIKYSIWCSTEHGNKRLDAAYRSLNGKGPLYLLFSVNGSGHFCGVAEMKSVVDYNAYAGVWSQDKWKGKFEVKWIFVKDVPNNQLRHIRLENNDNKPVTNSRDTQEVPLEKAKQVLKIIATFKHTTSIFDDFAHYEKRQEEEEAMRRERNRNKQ
# UniProt Q6ZNX1: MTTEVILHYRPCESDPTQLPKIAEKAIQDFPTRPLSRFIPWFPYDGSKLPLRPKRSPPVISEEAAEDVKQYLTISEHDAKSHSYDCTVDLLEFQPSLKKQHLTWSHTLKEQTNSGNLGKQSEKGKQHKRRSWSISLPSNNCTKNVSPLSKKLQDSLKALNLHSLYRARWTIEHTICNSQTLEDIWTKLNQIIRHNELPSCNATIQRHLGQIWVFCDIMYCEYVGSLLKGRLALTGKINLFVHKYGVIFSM
# UniProt Q70SY1: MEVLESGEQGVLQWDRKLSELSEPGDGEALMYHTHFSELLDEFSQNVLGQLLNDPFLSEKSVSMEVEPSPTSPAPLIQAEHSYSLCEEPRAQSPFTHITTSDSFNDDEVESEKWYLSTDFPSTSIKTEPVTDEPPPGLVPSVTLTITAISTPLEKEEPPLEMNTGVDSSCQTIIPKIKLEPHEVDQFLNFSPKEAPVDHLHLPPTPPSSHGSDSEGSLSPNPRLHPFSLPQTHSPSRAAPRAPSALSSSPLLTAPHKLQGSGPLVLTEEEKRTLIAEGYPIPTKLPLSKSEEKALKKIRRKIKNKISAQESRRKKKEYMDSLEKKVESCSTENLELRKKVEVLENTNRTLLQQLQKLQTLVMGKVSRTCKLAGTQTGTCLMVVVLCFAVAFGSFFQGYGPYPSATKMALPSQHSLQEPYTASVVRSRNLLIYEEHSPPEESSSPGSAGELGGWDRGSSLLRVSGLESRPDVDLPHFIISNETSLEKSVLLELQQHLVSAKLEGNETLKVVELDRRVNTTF
# UniProt Q7Z2W4: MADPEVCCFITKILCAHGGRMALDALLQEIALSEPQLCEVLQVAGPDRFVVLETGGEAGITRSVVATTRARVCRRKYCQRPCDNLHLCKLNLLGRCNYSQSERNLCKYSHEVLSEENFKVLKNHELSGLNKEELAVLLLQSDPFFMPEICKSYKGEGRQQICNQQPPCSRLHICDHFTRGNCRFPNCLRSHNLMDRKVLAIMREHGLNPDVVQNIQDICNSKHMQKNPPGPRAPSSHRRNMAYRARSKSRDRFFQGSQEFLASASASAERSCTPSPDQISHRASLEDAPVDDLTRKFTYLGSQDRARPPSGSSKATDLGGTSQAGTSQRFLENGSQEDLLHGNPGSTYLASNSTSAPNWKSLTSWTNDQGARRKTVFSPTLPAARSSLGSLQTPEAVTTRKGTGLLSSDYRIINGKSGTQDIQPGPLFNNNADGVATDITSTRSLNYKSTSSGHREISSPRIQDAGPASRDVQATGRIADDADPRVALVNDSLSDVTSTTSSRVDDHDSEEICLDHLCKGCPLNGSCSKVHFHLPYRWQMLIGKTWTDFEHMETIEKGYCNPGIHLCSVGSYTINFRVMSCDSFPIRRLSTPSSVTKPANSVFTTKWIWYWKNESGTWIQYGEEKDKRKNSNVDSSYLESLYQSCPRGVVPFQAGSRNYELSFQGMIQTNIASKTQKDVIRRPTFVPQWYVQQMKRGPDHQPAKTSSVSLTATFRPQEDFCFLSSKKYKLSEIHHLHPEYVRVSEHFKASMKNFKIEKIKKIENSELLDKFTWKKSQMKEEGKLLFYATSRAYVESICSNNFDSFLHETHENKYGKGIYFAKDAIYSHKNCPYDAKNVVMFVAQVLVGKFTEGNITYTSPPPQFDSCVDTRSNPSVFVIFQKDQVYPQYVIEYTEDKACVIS
# UniProt Q86UK7: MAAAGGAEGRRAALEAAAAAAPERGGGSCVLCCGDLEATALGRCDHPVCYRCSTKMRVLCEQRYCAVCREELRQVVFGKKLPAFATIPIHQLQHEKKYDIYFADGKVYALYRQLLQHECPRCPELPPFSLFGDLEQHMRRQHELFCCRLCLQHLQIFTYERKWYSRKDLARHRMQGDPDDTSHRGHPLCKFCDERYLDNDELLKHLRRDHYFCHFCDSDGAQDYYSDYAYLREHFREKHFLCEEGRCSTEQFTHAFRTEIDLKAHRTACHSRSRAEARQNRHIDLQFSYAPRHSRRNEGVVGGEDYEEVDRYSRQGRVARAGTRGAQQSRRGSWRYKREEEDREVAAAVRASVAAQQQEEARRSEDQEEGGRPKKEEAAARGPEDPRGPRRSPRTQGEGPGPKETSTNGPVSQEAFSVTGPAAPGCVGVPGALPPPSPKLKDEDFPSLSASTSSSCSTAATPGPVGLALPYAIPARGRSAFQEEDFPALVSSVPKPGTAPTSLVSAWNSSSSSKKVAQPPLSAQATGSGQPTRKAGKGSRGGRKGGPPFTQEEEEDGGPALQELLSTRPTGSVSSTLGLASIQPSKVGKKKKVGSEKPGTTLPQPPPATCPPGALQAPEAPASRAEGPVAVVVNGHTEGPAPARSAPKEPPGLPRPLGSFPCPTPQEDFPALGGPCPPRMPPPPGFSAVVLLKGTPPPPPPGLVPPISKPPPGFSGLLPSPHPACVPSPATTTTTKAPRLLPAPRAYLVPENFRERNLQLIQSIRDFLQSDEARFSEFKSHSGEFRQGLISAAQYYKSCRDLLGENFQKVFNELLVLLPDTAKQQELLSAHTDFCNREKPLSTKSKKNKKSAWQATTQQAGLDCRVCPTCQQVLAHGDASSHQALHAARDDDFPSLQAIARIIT
# UniProt Q6ZSR9: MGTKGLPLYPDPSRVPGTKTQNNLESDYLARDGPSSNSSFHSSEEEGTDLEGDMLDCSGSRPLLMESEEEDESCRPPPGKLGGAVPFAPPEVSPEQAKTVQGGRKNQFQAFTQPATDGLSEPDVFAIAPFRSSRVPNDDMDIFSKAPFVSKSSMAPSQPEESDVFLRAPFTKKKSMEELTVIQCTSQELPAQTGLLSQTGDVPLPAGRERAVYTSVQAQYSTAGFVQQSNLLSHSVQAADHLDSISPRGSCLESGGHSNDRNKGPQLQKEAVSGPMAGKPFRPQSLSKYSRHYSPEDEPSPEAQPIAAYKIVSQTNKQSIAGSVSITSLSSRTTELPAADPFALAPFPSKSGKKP
# UniProt Q86SQ0: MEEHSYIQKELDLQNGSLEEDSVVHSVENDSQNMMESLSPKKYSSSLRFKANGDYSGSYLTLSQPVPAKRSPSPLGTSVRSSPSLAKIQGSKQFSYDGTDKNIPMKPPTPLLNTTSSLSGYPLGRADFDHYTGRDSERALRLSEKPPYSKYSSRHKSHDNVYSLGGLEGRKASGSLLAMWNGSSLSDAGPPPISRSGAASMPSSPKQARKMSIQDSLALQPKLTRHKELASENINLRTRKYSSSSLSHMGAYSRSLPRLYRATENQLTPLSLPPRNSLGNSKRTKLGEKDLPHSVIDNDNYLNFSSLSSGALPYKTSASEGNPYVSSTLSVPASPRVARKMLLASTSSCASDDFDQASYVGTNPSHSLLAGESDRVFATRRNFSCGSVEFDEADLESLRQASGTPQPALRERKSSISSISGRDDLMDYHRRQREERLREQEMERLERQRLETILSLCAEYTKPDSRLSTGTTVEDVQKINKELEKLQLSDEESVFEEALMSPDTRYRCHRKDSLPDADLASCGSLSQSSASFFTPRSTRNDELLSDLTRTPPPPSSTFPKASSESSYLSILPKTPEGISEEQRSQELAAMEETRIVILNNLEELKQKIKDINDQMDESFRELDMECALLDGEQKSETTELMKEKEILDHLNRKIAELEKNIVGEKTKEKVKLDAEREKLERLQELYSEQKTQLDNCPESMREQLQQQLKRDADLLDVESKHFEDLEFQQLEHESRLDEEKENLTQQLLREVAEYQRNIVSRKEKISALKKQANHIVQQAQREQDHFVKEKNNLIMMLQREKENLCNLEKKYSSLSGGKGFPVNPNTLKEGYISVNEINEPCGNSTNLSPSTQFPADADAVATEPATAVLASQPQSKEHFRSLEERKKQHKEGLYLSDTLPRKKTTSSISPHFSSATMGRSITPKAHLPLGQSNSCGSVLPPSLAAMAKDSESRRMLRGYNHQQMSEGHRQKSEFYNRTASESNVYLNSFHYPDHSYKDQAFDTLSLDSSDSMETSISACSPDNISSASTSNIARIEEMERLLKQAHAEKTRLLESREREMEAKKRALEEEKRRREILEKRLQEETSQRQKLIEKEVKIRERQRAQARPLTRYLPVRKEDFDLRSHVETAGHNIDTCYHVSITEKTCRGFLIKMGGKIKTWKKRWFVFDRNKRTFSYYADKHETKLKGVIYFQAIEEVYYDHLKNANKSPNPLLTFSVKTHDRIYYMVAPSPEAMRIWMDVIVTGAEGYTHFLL
# UniProt Q6ZN28: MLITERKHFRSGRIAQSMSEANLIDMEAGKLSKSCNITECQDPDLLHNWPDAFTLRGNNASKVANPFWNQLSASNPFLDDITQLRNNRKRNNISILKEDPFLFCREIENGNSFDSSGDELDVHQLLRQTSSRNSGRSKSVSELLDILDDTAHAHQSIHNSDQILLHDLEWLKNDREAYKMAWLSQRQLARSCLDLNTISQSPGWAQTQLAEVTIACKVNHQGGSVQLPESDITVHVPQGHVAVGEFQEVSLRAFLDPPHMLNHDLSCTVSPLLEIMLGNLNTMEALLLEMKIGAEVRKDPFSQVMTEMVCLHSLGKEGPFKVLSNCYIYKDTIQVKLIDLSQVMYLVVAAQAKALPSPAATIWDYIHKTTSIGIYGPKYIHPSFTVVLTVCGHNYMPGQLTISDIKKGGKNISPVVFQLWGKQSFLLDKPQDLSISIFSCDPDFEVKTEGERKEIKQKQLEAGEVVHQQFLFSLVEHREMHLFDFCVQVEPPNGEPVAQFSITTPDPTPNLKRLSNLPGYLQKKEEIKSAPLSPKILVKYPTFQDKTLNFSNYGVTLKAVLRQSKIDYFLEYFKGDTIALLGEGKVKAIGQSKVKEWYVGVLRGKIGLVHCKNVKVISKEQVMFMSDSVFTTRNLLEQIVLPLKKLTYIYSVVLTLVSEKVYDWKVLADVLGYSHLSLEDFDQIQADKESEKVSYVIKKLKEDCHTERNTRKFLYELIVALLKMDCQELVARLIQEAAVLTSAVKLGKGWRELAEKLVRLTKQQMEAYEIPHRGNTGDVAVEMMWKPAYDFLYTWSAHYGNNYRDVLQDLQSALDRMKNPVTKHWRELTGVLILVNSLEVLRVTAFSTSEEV
# UniProt Q6ZNG1: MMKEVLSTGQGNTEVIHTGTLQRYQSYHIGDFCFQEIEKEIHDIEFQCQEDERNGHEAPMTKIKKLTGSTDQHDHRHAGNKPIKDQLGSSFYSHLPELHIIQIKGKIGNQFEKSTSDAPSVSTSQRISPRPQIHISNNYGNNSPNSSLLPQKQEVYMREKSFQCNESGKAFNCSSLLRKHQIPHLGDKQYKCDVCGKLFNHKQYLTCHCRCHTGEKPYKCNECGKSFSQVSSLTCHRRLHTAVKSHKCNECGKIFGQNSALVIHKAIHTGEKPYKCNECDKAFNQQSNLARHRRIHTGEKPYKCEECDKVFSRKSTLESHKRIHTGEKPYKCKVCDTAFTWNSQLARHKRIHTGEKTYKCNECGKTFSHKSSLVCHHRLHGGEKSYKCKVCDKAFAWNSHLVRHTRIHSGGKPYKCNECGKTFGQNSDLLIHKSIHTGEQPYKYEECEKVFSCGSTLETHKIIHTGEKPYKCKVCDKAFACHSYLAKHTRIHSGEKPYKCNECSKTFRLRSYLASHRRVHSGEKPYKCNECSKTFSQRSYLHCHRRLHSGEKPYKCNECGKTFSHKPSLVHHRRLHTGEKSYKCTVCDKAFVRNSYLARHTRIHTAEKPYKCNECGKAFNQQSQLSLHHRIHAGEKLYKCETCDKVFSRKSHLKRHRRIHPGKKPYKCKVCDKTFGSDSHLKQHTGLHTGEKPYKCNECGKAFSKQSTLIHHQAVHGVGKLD
# Compound: CN[C@@H]1C[C@H]2O[C@@](C)([C@@H]1OC)n1c3ccccc3c3c4c(c5c6ccccc6n2c5c31)C(=O)NC4 [staurosporine]
# Assay: log2 fold change of tryptic peptide abundance, ligand vs vehicle (limited proteolysis) (log2 ratio); higher = more trypsin-susceptible (destabilized)
# Details: ligand concentration: 20 uM; sample: K562 cleared lysate; digestion: 4 min, 22 C (HT-PELSA RT4min, Orbitrap Astral)
row,Target,log2 fold change
1,"YTHDF3 (peptide sequence: IGGDLTAAVTK, peptide start residue: 196) (UniProt Q7Z739)",-0.239
2,"UniProt Q6ZTW0 (peptide sequence: AGALFQLLEDSAAAVADRR, peptide start residue: 198)",-0.19
3,"ATG9A (peptide sequence: PGAPETTALHGGFQR, peptide start residue: 769) (UniProt Q7Z3C6)",0.197
4,"LCA5 (peptide sequence: NLELSTNSFQR, peptide start residue: 245) (UniProt Q86VQ0)",0.0617
5,"CPEB2 (peptide sequence: EFHKPLVK, peptide start residue: 708) (UniProt Q7Z5Q1)",0.473
6,"UniProt Q6ZNX1 (peptide sequence: AIQDFPTRPLSR, peptide start residue: 26)",0.335
7,"CREB3L2 (peptide sequence: APSALSSSPLLTAPHK, peptide start residue: 242) (UniProt Q70SY1)",0.375
8,"EP400P1 (peptide sequence: MQHVSSSQSSQR, peptide start residue: 1) (UniProt Q6ZTU2)",-0.265
9,"UniProt Q7L804 (peptide sequence: VMEETPSILR, peptide start residue: 488)",0.624
10,"ZC3HAV1 (peptide sequence: IADDADPR, peptide start residue: 478) (UniProt Q7Z2W4)",-0.148
11,"USP34 (peptide sequence: AYNPRPFCK, peptide start residue: 1954) (UniProt Q70CQ2)",-0.923
12,"STXBP4 (peptide sequence: RIMVLDCQLR, peptide start residue: 405) (UniProt Q6ZWJ1)",0.896
13,"ZNF598 (peptide sequence: EEEDREVAAAVR, peptide start residue: 339) (UniProt Q86UK7)",-0.214
14,"MON2 (peptide sequence: FCVQPQLLR, peptide start residue: 362) (UniProt Q7Z3U7)",0.206
15,"MRPL55 (peptide sequence: MLAMPIDLDTLSPEER, peptide start residue: 74) (UniProt Q7Z7F7)",0.312
16,"UniProt Q7Z5K2 (peptide sequence: SMDEFTASTPADLGEAGR, peptide start residue: 380)",0.478
17,"UniProt Q7Z3E2 (peptide sequence: LLSLNTDKTLCQPNEHNNR, peptide start residue: 44)",0.645
18,"SPRED1 (peptide sequence: SSNIRPSPFEDLNAR, peptide start residue: 170) (UniProt Q7Z699)",0.128
19,"DPP9 (peptide sequence: EALLLLSWK, peptide start residue: 98) (UniProt Q86TI2)",-0.0953
20,"UniProt Q6ZSR9 (peptide sequence: GLPLYPDPSRVPGTK, peptide start residue: 5)",0.0892
21,"UniProt Q7Z392 (peptide sequence: FIPTSIFVKPQGR, peptide start residue: 1111)",0.0683
22,"NT5DC3 (peptide sequence: TGAIIPELR, peptide start residue: 406) (UniProt Q86UY8)",0.244
23,"IQGAP3 (peptide sequence: GQSALQEILGK, peptide start residue: 1048) (UniProt Q86VI3)",0.242
24,"PHLDB2 (peptide sequence: LREQEMER, peptide start residue: 601) (UniProt Q86SQ0)",0.257
25,"MACC1 (peptide sequence: EDPFLFCR, peptide start residue: 98) (UniProt Q6ZN28)",-0.209
26,"UniProt Q6ZNG1 (peptide sequence: SFQCNESGK, peptide start residue: 214)",-0.0381
27,"EMSY (peptide sequence: ITTIPMTSKPNVIVVQK, peptide start residue: 567) (UniProt Q7Z589)",0.314
28,"CENPQ (peptide sequence: DLDILHNSSQMK, peptide start residue: 241) (UniProt Q7L2Z9)",0.329
29,"RUFY3 (peptide sequence: MNLMNMAK, peptide start residue: 70) (UniProt Q7L099)",0.237

# Part of the list above, tab-delimited:
row	Target	log2 fold change
6	UniProt Q6ZNX1 (peptide sequence: AIQDFPTRPLSR, peptide start residue: 26)	0.335
28	CENPQ (peptide sequence: DLDILHNSSQMK, peptide start residue: 241) (UniProt Q7L2Z9)	0.329
